PubChem BioAssay AID743454, Peter MacCallum Cancer Centre – 2014
In all, the deposit lists about 18,000 reagents; this is an unselected part. 450 of them (2.5%) count as active. 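Single biological run; no consistent viability z cut-off exists, so the class columns, not z-scores, define the calls.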 Unmarked entries are inactive.

Test: 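Genes whose loss kills vorinostat-resistant colon cancer cells under vorinostat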 (primary screen)
System: human HCT116-VR colon cancer cells, selected for vorinostat resistance
Reagent: siRNA pool against human genes, 40 nM siRNA pool
Time to read-out: vorinostat for 24 h, read-out about 72 h after transfection
Conditions: vorinostat at 2.5 µM final
Read-out: 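Cell viability by CellTiter-Fluor and caspase 3/7 activity by luminescence, each scaled to mock wells per plate, duplicates averaged, then robust z-scored over all plates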
Scale: viability robust z-score: higher = more viable cells than screen typical; caspase robust z-score: higher = more caspase 3/7 activity than screen typical
Call rule: 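a knock-down is a hit when classed RV1 or RV2 for lowered viability, or CA1 or CA2 for caspase activation; those lethal without drug were dropped; hits were retested singly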

gene symbol	viability hit class	caspase hit class	viability robust z-score	caspase robust z-score
FBXL17 (F-box and leucine rich repeat protein 17)	no change	no change	-1.83	-1.04
COX15 (cytochrome c oxidase assembly factor COX15)	no change	no change	1.28	-0.6
WASHC3 (WASH complex subunit 3)	no change	no change	-0.54	0.48
BOC (BOC cell adhesion associated, oncogene regulated)	no change	no change	-0.67	4.39
SLC25A23	no change	no change	0.36	2.9
CARD10 (caspase recruitment domain family member 10)	no change	no change	-0.24	-0.84
GPT (glutamic--pyruvic transaminase)	no change	no change	-1.53	1.9

A few values from above:
Value of CARD10 (caspase recruitment domain family member 10) under “viability hit class”: no change
FBXL17 (F-box and leucine rich repeat protein 17), viability robust z-score: -1.83
Under “caspase robust z-score”, COX15 (cytochrome c oxidase assembly factor COX15) reads -0.6
WASHC3 (WASH complex subunit 3), viability robust z-score = -0.54

Additional entries follow.
gene symbol	viability hit class	caspase hit class	viability robust z-score	caspase robust z-score
PHB1 (prohibitin 1)	no change	no change	-2.11	-0.57
PQBP1 (polyglutamine binding protein 1)	no change	no change	-0.16	-0.08
PANK3 (pantothenate kinase 3)	no change	no change	0.54	-0.78
ADAMTSL5 (ADAMTS like 5)	no change	no change	0.04	-0.38
ALDH1A3 (aldehyde dehydrogenase 1 family member A3)	no change	no change	-2.03	1.59
VSTM4 (V-set and transmembrane domain containing 4)	no change	no change	0.57	1.7
SMC4 (structural maintenance of chromosomes 4)	no change	no change	-0.45	0.36
ST3GAL2 (ST3 beta-galactoside alpha-2,3-sialyltransferase 2)	no change	no change	0.26	1
PRKD2 (protein kinase D2)	no change	no change	0.22	0.6
SIL1 (SIL1 nucleotide exchange factor)	no change	no change	-0.98	-0.76
ELMOD3 (ELMO domain containing 3)	no change	no change	-0.06	-0.59
MYBL1 (MYB proto-oncogene like 1)	no change	no change	-0.7	3.5
ENO1 (enolase 1)	no change	no change	0.24	-0.74
CD9 (CD9 molecule)	no change	no change	-0.84	-0.88
RIDA (reactive intermediate imine deaminase A)	no change	no change	-0.07	-0.62
NAA10 (N-alpha-acetyltransferase 10, NatA catalytic subunit)	no change	no change	-1.29	-0.5
